This note sets out measurements from publication PMC9815656.

For assay [1], the target named is CRMPA-TurboID (TGGT1_261080, C-terminal TurboID) (Toxoplasma gondii (RH strain)). The experiment in a line: proximity labelling; TurboID at the C-terminus of CRMPA or CRMPB; extracellular tachyzoites labelled with biotin 30 min at 37°C; RIPA lysate, streptavidin beads, LC-MS/MS; compared with wild-type (DiCre) tachyzoites; no rapamycin.
For assay [2], the target named is CRMPB-TurboID (TGGT1_292020, C-terminal TurboID) (Toxoplasma gondii (RH strain)). The assay is described as above.

No constants are given. Whether binding was seen depends on the method and setting. In cells and extracts the contact can be indirect. Here binding means that the protein was enriched with, or labelled near, the bait; the list need not be complete. No binding means not detected with the bait.

B1: MIC8 (protein, UniProt Q9BIM7 19-684)
chain: SFLKEMDSIFVSAIRQNVQHTHSALLAKLKEPPDPDDENSWLCRISKKYDACGSREYSDKGLKGTYCPEDFCCSKTACFYGSCGSWCHDNWALCSSSIIYHDEYSYGKCNCKRFQENCDVNAICVHANREDGGAYCQCKEGYWGDGKSCKIDFCQLQPCGAGTCTRTDEGYKCDCPETHKLIVVEDKETCKAKPDFCAEEPCGPPSMVENCVNTDDSYECVCKQGYEVRNGRCEEIDLCADKPCGPDEGVHECVTERQPKLRYRCTCKAGFDLTTLPDGVSQKCLKNFCYEEPCGTRDLVESCKSKAYGYSCLCAAGAMVQVINGKEKCIKADLCRNDPCGPETAVIQCYSHGTSYRCLCKAGYTEVFVNGKSSCQKGDPCTLNMCGGNEAVQECTTDGTAYGCTCKPGYSIAIKHGQKFCNPEEECASHCGSAAAVKSCEILDSGGYQCTCNPGYVMRYSDYVKGCVEGNQCSLNPCGEQEAVQRCIPEGDTYDCECNPGFVKRVLPDGNFICADPASCVGNPCGSSDAVDACIAGTSTYTCRCKDGYTPQSIGSKLQCLPESTDQTDFDSKHKPEDNKGRYSKGTIALVVVGCVALLGIIAGGISYARNRGGERDDEDLAPPPRSTRERRLSSMGEGFENASWASSVSMIPSAPAPPPSGGIWS
On to B1, for which the binding entry in assay [1] and in assay [2] was “no binding” throughout.
